Data published in the supplement of paper PMC12819154, “High-throughput peptide-centric local stability assay extends protein–ligand identification to membrane proteins, tissues and bacteria” (Nature Structural & Molecular Biology, 2025).
This is one part of the list. Small differences around the control level are noise.

Protein sequences, listed by entry. Tags and fused reporters are not part of them. Lines headed by an entry give the natural chain unless they say otherwise; changes in a name come on top.
UniProt Q86WZ6: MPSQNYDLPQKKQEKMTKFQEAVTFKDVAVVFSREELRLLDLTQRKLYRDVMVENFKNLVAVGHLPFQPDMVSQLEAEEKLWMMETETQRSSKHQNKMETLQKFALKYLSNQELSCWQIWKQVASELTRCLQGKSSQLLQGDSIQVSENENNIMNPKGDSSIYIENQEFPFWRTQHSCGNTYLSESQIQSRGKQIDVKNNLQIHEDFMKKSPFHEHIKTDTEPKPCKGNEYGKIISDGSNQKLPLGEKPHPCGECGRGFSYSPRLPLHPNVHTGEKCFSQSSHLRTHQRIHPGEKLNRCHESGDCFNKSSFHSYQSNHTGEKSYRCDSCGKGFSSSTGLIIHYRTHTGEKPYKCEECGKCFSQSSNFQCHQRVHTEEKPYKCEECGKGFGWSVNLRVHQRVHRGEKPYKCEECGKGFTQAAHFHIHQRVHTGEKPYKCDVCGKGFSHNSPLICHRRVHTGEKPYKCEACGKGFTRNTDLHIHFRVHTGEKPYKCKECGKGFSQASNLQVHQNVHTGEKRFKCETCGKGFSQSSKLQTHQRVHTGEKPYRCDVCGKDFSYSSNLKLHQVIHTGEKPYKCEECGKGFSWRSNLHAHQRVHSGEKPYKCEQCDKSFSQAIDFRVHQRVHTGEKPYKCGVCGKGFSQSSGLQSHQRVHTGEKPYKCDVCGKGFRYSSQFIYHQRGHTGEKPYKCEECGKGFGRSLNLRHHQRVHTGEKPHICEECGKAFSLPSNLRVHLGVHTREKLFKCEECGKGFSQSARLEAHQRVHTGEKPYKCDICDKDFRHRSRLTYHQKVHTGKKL
UniProt Q8N0T1: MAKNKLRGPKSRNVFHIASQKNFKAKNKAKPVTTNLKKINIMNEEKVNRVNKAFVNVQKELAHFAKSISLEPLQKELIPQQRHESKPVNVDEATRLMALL
UniProt Q8IY47: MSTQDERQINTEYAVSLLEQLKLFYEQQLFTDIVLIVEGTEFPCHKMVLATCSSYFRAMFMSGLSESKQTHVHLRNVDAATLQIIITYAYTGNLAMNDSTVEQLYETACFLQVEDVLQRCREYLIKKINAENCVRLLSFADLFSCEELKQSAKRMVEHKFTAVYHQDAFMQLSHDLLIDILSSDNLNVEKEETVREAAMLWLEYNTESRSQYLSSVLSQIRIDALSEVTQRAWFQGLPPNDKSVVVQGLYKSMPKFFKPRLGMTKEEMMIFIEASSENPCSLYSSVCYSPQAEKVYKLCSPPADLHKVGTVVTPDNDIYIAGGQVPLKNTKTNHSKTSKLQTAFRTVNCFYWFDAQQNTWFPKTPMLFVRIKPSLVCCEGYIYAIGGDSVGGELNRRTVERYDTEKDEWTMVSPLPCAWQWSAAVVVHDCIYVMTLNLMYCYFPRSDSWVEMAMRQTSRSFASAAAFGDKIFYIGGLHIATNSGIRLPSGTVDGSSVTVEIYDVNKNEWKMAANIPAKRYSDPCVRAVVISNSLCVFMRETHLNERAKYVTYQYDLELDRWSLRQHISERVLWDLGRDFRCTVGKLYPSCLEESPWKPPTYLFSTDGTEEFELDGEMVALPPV
UniProt Q86YH6: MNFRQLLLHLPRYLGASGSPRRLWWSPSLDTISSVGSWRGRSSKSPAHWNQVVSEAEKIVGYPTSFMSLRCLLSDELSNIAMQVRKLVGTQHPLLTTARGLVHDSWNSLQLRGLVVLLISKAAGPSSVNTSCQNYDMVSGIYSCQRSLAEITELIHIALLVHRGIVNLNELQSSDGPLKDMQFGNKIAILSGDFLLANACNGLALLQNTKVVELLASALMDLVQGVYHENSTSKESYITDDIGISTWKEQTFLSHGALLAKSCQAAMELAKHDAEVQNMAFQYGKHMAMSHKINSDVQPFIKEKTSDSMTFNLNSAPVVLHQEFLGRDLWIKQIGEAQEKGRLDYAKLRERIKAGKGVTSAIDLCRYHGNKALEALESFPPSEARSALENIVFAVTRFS
UniProt Q8IWR0: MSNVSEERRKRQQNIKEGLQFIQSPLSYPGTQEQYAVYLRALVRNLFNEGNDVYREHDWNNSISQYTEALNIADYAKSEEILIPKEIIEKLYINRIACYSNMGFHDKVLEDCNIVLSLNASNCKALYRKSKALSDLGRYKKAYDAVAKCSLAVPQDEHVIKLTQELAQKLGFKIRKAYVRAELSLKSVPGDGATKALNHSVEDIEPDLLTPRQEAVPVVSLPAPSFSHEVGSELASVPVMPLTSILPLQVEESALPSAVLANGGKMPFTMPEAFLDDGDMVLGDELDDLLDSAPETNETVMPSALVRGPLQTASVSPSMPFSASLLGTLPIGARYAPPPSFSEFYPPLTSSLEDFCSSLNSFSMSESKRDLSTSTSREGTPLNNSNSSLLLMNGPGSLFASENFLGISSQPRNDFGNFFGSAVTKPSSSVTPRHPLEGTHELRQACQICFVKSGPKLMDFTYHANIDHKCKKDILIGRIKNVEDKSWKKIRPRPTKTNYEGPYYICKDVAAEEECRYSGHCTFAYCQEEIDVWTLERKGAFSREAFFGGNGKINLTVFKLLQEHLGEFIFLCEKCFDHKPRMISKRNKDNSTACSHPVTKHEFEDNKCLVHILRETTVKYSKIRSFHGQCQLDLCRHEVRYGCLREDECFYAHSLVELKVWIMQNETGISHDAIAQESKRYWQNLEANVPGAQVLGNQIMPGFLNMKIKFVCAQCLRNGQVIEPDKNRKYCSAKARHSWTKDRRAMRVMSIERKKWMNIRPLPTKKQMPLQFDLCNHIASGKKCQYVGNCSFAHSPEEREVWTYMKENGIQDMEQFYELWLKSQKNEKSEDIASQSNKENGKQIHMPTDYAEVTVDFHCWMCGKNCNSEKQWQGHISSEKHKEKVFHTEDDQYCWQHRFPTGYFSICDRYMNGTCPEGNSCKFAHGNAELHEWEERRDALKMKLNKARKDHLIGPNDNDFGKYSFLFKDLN
UniProt Q8IUI4: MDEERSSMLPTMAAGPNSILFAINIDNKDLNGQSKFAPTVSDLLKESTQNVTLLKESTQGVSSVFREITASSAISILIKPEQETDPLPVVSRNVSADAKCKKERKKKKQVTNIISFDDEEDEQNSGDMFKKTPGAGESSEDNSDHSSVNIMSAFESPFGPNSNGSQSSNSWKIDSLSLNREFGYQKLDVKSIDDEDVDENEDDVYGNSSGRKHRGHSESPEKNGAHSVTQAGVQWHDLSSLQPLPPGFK
UniProt Q8IYL2: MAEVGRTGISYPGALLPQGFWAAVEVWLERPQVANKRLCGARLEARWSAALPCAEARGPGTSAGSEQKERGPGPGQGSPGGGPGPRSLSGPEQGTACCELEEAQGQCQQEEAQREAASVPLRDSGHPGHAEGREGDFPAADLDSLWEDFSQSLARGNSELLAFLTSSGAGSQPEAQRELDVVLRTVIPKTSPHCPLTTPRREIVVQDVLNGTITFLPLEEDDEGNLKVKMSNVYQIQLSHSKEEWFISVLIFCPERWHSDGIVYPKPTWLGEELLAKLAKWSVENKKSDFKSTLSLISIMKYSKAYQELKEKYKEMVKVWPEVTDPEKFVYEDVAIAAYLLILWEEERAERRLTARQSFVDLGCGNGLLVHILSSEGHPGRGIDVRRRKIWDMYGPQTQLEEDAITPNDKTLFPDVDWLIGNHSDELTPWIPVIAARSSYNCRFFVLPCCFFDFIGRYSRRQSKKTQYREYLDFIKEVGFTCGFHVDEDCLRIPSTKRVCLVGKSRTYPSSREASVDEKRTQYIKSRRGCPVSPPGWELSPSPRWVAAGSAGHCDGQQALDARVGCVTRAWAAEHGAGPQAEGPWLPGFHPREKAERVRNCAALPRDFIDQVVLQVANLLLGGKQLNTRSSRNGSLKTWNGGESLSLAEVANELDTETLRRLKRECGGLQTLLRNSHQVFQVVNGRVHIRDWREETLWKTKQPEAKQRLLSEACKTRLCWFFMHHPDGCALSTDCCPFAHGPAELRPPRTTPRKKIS
UniProt Q86WQ0: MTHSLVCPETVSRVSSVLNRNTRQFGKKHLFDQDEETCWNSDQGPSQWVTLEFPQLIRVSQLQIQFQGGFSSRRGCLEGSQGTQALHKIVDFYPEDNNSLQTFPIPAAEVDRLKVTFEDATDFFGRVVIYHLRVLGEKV
UniProt Q8IXQ4: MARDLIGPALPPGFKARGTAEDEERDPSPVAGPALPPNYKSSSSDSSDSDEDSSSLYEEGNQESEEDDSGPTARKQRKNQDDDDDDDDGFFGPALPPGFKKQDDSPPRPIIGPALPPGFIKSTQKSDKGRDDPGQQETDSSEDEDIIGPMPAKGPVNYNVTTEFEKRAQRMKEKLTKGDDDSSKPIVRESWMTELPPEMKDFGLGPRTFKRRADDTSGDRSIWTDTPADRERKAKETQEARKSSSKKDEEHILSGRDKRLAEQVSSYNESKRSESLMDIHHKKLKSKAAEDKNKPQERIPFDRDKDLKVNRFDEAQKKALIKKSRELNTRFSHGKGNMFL
UniProt Q8IXV7: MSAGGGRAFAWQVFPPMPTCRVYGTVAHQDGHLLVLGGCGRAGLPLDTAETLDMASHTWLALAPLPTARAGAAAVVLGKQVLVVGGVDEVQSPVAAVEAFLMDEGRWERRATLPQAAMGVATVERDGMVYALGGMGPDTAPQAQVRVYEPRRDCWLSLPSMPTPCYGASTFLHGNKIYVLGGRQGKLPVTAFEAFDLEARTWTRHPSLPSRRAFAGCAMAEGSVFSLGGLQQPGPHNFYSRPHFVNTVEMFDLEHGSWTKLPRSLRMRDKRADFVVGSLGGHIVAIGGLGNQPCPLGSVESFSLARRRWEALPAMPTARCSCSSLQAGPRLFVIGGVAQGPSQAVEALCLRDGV
UniProt Q8IUQ4: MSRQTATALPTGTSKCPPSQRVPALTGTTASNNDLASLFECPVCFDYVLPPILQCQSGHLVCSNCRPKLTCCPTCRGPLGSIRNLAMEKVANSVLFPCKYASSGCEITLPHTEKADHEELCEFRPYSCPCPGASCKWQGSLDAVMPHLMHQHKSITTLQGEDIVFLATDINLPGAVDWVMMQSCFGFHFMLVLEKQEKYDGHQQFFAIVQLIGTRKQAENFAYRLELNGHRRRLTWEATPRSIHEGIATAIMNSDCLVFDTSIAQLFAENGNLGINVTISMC
UniProt Q8IYB7: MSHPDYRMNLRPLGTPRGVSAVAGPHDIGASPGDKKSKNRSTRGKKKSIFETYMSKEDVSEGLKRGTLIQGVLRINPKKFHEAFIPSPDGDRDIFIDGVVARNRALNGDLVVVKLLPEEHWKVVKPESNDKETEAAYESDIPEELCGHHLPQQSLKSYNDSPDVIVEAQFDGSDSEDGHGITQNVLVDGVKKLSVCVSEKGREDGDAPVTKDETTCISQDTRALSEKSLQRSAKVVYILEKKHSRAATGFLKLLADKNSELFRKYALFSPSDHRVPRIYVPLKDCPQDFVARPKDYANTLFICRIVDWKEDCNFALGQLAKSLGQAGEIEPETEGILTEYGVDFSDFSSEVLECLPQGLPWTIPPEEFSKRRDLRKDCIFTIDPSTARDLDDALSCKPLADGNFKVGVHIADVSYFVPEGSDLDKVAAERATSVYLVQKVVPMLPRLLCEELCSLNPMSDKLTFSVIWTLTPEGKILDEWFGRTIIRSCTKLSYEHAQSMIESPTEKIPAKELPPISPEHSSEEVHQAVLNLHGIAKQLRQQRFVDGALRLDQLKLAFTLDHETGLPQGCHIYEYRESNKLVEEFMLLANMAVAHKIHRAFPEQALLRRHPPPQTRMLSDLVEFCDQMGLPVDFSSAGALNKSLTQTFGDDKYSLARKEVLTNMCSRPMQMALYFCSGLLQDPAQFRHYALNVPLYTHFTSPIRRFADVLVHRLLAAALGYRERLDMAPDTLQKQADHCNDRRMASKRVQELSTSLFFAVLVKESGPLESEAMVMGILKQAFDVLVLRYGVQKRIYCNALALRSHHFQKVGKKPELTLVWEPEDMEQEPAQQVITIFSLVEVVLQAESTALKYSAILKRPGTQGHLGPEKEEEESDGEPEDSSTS
UniProt Q86XN8: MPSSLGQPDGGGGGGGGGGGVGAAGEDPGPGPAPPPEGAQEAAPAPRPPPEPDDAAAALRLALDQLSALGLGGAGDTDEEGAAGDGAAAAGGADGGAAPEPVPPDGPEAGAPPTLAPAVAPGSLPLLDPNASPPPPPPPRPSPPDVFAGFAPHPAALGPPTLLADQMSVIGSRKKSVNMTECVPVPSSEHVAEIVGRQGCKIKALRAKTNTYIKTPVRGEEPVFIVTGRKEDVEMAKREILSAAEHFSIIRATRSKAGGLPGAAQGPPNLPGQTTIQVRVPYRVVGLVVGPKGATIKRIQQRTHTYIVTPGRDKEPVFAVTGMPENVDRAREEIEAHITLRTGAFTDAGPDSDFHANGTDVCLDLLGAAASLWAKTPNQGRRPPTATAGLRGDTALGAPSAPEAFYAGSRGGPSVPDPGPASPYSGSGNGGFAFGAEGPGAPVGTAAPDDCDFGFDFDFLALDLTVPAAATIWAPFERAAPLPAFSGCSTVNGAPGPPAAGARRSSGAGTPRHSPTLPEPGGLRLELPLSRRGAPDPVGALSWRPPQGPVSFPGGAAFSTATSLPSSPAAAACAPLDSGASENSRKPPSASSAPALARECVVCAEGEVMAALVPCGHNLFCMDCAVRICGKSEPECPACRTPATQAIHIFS

What follows are targets tested with Cc1nc(Nc2ncc(C(=O)Nc3c(C)cccc3Cl)s2)cc(N2CCN(CCO)CC2)n1 [dasatinib] (assay: log2 fold change of tryptic peptide abundance, ligand vs vehicle (limited proteolysis) (log2 ratio); higher = more trypsin-susceptible (destabilized)). Settings: ligand concentration: 5 uM; sample: K562 cleared lysate.
For “UniProt Q86WZ6 (peptide sequence: DVMVENFK, peptide start residue: 50)”, the log2 fold change was 0.476. In the case of “UniProt Q8IVS2 (peptide sequence: KPLVSVYSNVHAHRYR, peptide start residue: 292)”, the log2 fold change is reported as -0.244. “UniProt Q8N0T1 (peptide sequence: KINIMNEEK, peptide start residue: 38)” was tested, and the log2 fold change was -0.44. Target “SMYD4 (peptide sequence: TLNYGLGESEK, peptide start residue: 390) (UniProt Q8IYR2)” has a log2 fold change of 0.274. “KBTBD2 (peptide sequence: AWFQGLPPNDK, peptide start residue: 232) (UniProt Q8IY47)” showed a log2 fold change of -0.191. In the case of “PDSS2 (peptide sequence: INSDVQPFIK, peptide start residue: 293) (UniProt Q86YH6)”, the log2 fold change is reported as 0.239. Target “ZC3H7A (peptide sequence: WMNIRPLPTKK, peptide start residue: 756) (UniProt Q8IWR0)” has a log2 fold change of -0.222. For “UniProt Q8IUI4 (peptide sequence: FAPTVSDLLK, peptide start residue: 188)”, the log2 fold change was 0.126. Target “UniProt Q86Z20 (peptide sequence: KPGGIYEIEFSHR, peptide start residue: 35)” has a log2 fold change of -0.497. “YANK3 (peptide sequence: DAAEPVEDEAER, peptide start residue: 459) (UniProt Q86UX6)” was tested, and the log2 fold change was 0.25. With “PNMA8A (peptide sequence: KPCVNKEELALK, peptide start residue: 293) (UniProt Q86V59)” the log2 fold change was -0.125. “RDH10 (peptide sequence: QATNNNEAK, peptide start residue: 330) (UniProt Q8IZV5)” gave a log2 fold change of 0.269. In the case of “NCAPG2 (peptide sequence: CLPMILDNK, peptide start residue: 443) (UniProt Q86XI2)”, the log2 fold change is reported as 0.262. “ASXL1 (peptide sequence: DALQWSR, peptide start residue: 86) (UniProt Q8IXJ9)” was tested, and the log2 fold change was -0.497. “UniProt Q8IYL2 (peptide sequence: EVGFTCGFHVDEDCLR, peptide start residue: 477)” was tested, and the log2 fold change was 0.455. “NR2C2AP (peptide sequence: GCLEGSQGTQALHK, peptide start residue: 75) (UniProt Q86WQ0)” showed a log2 fold change of -0.276. With “UniProt Q8IXQ4 (peptide sequence: DLIGPALPPGFK, peptide start residue: 4)” the log2 fold change was -0.128. For “CBWD2 (peptide sequence: LKGLVSIKDK, peptide start residue: 316) (UniProt Q8IUF1)”, the log2 fold change was -0.49. Work on “CDAN1 (peptide sequence: LLASWVSGSSGR, peptide start residue: 808) (UniProt Q8IWY9)” yielded a log2 fold change of 0.52. “WDFY3 (peptide sequence: ATAAWCTDSGSDDSRR, peptide start residue: 3318) (UniProt Q8IZQ1)” showed a log2 fold change of 0.274. “KLHDC8B (peptide sequence: CSCSSLQAGPR, peptide start residue: 320) (UniProt Q8IXV7)” gave a log2 fold change of -0.13. For “KSR1 (peptide sequence: QIAQEIIK, peptide start residue: 712) (UniProt Q8IVT5)”, the log2 fold change was -0.131. “SIAH1 (peptide sequence: QTATALPTGTSKCPPSQR, peptide start residue: 4) (UniProt Q8IUQ4)” was tested, and the log2 fold change was 0.105. Target “DIS3L2 (peptide sequence: QAFDVLVLR, peptide start residue: 780) (UniProt Q8IYB7)” has a log2 fold change of -0.682. For “HOMER1 (peptide sequence: SQNEQEAFR, peptide start residue: 315) (UniProt Q86YM7)”, the log2 fold change was -0.577. “UniProt Q8N0X7 (peptide sequence: ELAPHVKK, peptide start residue: 508)” was tested, and the log2 fold change was 0.184. Target “MEX3D (peptide sequence: TPATQAIHIFS, peptide start residue: 641) (UniProt Q86XN8)” has a log2 fold change of -0.439. “CHD1L (peptide sequence: AILMKDLDAFENETAK, peptide start residue: 292) (UniProt Q86WJ1)” was tested, and the log2 fold change was 0.33. “FOXP4 (peptide sequence: QAILETPDR, peptide start residue: 478) (UniProt Q8IVH2)” showed a log2 fold change of -0.409.
